# PubChem BioAssay AID2551 (National Center for Advancing Translational Sciences (NCATS), 2010)
# The chains behind the UniProt entries cited, without tags or fusion partners. Where a name states a change or a piece, a line headed by the entry shows the natural chain unless it says otherwise.
# UniProt P51450: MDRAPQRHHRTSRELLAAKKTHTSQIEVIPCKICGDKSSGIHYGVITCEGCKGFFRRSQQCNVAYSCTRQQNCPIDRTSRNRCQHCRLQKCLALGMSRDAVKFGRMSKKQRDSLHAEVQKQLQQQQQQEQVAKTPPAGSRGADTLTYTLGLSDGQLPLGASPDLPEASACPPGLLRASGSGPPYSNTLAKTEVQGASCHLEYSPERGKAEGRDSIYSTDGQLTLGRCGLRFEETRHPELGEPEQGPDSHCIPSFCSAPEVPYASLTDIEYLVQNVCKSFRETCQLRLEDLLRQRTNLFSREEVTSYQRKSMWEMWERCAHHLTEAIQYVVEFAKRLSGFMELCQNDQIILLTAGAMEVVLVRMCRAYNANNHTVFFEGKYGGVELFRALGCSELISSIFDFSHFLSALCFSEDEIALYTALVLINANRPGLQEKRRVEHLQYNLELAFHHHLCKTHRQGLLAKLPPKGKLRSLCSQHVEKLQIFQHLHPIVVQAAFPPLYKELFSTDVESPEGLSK
# Hit rate of the full screen: of about 310,000 compounds, about 17,000 (5.5%) were called active. Inconclusive means that the source gave no clear call. Such entries were picked first, then a sample of the others. Calls come from the whole dose curve; as a rule, active = well fitted inhibition curve with a large enough effect; inconclusive = small, poorly fitted or top-dose-only effect, or effect the other way; inactive = no such curve, though single readings can be large or run the other way. A potency beside an inconclusive call is a rough fit, not a confirmed value.
# Biological target: Nuclear receptor ROR-gamma (Mus musculus) (UniProt P51450)
# Test: qHTS for inhibitors of ROR gamma transcriptional activity; note: nearly all actives have a fitted effect of over 60% in size
# Details: Drosophila S2 Gal4-RORgamma UAS-luciferase reporter, 20 h; activity change, negative = inhibition: at 53.6 µM (top of the series)
# Summary of the method: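 Stably transfected Drosophila Schneider cells are the test system, with ROR gamma fused to Gal4 and luciferase under UAS control; luminescence is read after 20 hr of 700 uM copper sulfate induction at ambient temperature.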
# % is set by controls: 0 for no effect and ±100 for the full control effect; potency is the fitted concentration of half-maximal effect.
SMILES,Potency,"activity change, negative = inhibition"
Cc1ccc(OCc2nnc(SCc3cc(=O)[nH]c4ccccc34)o2)cc1,"inconclusive: 0.891 µM [inhibitor, single point]",–
CC(C)(C)S(=O)(=O)c1cnc2c(-c3ccc(Cl)cc3)cnn2c1N,active: 2.82 µM,–
CCC(C)Cn1c(O)cc2nn(-c3nc4ccccc4s3)c(=O)c-2c1C (configuration not stated),"inconclusive: 12.6 µM [inhibitor, partial curve]",–
CCOC(=O)c1[nH]c(C)c(C(=O)Nc2ccc3c(c2)OCCO3)c1C,–,inactive: 2.18%
O=C(Cn1c(=O)oc2cc(S(=O)(=O)N3CCCC3)ccc21)NCc1ccc(F)cc1,"inconclusive: 5.62 µM [inhibitor, single point]",–
COC(=O)N/N=C/c1cn(CC(C)COc2ccccc2)c2ccccc12 (configuration not stated),"inconclusive: 3.16 µM [activator, single point]",–
CCN(CC)c1ccc(NC(=O)CCCCCN2C(=O)c3ccccc3C2=O)cc1,"inconclusive: 12.6 µM [activator, single point]",–
Cc1cc(Cl)ccc1OCCCC(=O)NCc1ccccn1,–,inactive: 16.2%
CCCC(=O)Nc1ccc(Cl)c(NC(=O)CC)c1,"inconclusive: 2.82 µM [inhibitor, single point]",–
O=C(Nc1nc2ccccc2s1)C1CCN(C(=O)c2ccco2)CC1,"inconclusive: 11.2 µM [activator, partial curve]",–
O=C(Nc1sc2c(c1C(=O)O)CCCCC2)c1ccco1,–,inactive: -40.9%
Cc1cc(C)n(-c2ccc(C(=O)NCCCN3CCOCC3)cc2)n1,–,inactive: -23.4%
O=C(N/N=C/c1cc(Cl)cc([N+](=O)[O-])c1O)c1ccc2c(c1)OCO2,active: 0.794 µM,–
CCC(=NCc1ccc(Cl)c(Cl)c1)c1nc(-c2ccco2)oc1O,"inconclusive: 17.8 µM [activator, single point]",–
Cc1ccc(OCc2cc(C(=O)NCc3cc(F)ccc3C)no2)cn1,"inconclusive: 11.2 µM [activator, partial curve]",–
CC(C)CN(C[C@@H](OP(=O)(O)O)[C@H](Cc1ccccc1)NC(=O)O[C@@H]1CCOC1)S(=O)(=O)c1ccc(N)cc1,–,inactive: 23.8%
Cn1ncc2c(Nc3ccc(-c4ccccc4)cc3)ncnc21,"inconclusive: 12.6 µM [activator, partial curve]",–
Cc1cc(C)nc(NNC(=O)c2ccccc2O)n1,active: 11.2 µM,–
COc1ccc(NC(=O)C(=O)Nc2cccc3cccnc23)cc1OC,active: 1.78 µM,–
COc1ccc(CNC(=S)NCc2ccc(F)cc2)cc1,active: 11.2 µM,–
CS(=O)(=O)N(CC(=O)NCCSc1ccc(Cl)cc1)c1ccc2c(c1)OCO2,–,inactive: -4.85%
CCN(CC)c1ccc(/C=C2/SC(=O)N(C(C)C)C2=O)o1,active: 5.01 µM,–
C#CCCOC(=O)N1C2=NC(C(=O)OC)=C(C(=O)OC)[C@@H]3N(C)c4ccccc4[C@]23C[C@H]1C(=O)OC,–,inactive: 4.94%
CC(Oc1ccccc1)C(=O)N=Nc1c(O)[nH]c2ccc([N+](=O)[O-])cc12 (configuration not stated),"inconclusive: 35.5 µM [inhibitor, single point]",–

SMILES,Potency,"activity change, negative = inhibition"
O=C(Nc1ccc2c(c1)CCC2)c1cccc(S(=O)(=O)Nc2ccccc2Cl)c1,"inconclusive: 11.2 µM [activator, partial curve]",–
CC(=O)Nc1ccc(NC(=O)c2ccccc2N(Cc2ccccc2)S(C)(=O)=O)cc1,–,inactive: 1.25%
CC(C)(C)c1ccc(CSc2nnc(-c3ccccn3)n2Cc2ccco2)cc1,"inconclusive: 17.8 µM [inhibitor, single point]",–
O=C(O)c1ccc(COc2ccccc2/C=C2/NC(=O)N(c3cccc(Cl)c3)C2=O)cc1,"inconclusive: 10 µM [activator, single point]",–
O=C(NC1C(=O)NNC1c1ccccc1)c1ccc(F)cc1 (configuration not stated),–,inactive: 12.3%
COc1ccc(C(=O)N2CCCC(C(=O)N3CCCCCC3)C2)cc1 (configuration not stated),–,inactive: 15%
CCCCn1c(NC(=O)c2ccccc2)c(C#N)c2nc3ccccc3nc21,"inconclusive: 35.5 µM [inhibitor, single point]",–
COC(=O)c1c(OC)cc2c(c1C)Oc1c(Cl)c(O)c(Cl)c(C)c1C(=O)O2,"inconclusive: 35.5 µM [activator, single point]",–
Cc1cc(C(=O)COc2ccccc2[N+](=O)[O-])c(C)n1-c1cccc(S(=O)(=O)N2CCOCC2)c1,"inconclusive: 20 µM [activator, single point]",–
CCOC(=O)c1ccc(NC(=O)C2C3CCC(C3)C2C(=O)O)cc1 (configuration not stated),"inconclusive: 10 µM [activator, partial curve]",–
Fc1ccc2c(c1)C(c1ccncc1)=NNC(c1ccc(Br)cc1)=N2,"inconclusive: 35.5 µM [inhibitor, single point]",–
Cc1noc(C)c1CSc1ccc2ccccc2n1,"inconclusive: 35.5 µM [inhibitor, single point]",–
Cc1ccc(NC(=O)CNc2cc(S(=O)(=O)N3CCOCC3)ccc2NCC2CCCO2)cc1F (configuration not stated),"inconclusive: 14.1 µM [activator, single point]",–
C/C=C/c1ccc(OCC(=O)N2CCc3cc(OC)c(OC)cc3C2)c(OC)c1,–,inactive: 4.89%
Cc1cc(OCc2n[nH]c(=S)n2-c2ccccc2)ccc1Cl,active: 2.51 µM,–
CC(C)Nc1nc2nonc2nc1Nc1ccccc1,–,inactive: 19.7%
Cc1ccc(S(=O)(=O)Nc2cc(C(=O)O)ccc2N2CCCCC2)cc1,–,inactive: -21%
O=C(NCc1ccco1)C1CCCN1S(=O)(=O)c1ccccc1C(F)(F)F (configuration not stated),"inconclusive: 20 µM [inhibitor, single point]",–
CN(C)c1ccc(/C=N/NC(=O)C2COc3ccccc3O2)o1 (configuration not stated),"inconclusive: 15.8 µM [inhibitor, single point]",–
O=C(COC(=O)Cn1cnc2ccccc2c1=O)Nc1ccc(Cl)c(C(F)(F)F)c1,"inconclusive: 14.1 µM [activator, single point]",–
COc1ccc(NC(=S)NN2CCN(C)CC2)cc1,–,inactive: -3.27%
Cc1cc(C(=O)COC(=O)Cc2n[nH]c(=O)c3ccccc23)c(C)n1-c1ccc2c(c1)OCCO2,"inconclusive: 35.5 µM [inhibitor, single point]",–
Cc1ccc(C)c(Oc2coc3cc(OCC(=O)Nc4ccccc4C(C)C)ccc3c2=O)c1,"inconclusive: 14.1 µM [activator, single point]",–
Cc1ccccc1Cn1nc(C)c(NC(=O)c2cc(CC(C)C)on2)c1C,"inconclusive: 8.91 µM [activator, single point]",–

SMILES,Potency,"activity change, negative = inhibition"
O=C(OCc1cccc([N+](=O)[O-])c1)c1cnccn1,–,inactive: -13.7%
Cc1ccccc1N=Nc1ccc(N=Nc2c(O)ccc3ccccc23)c(C)c1,–,inactive: -17.9% [at 10 µM]
CCN1CCN(c2ccc(S(=O)(=O)N3CCCCC3)cc2NC(=O)/C=C/c2cccc(OC)c2OC)CC1,"inconclusive: 35.5 µM [inhibitor, single point]",–
COCCn1c(-c2ccc(NC(C)=O)cc2)nc2c1c(=O)[nH]c(=O)n2CC(C)C,–,inactive: 0.787%
Cc1ccc(S(=O)(=O)N2CCN(CC(O)c3ccccc3)CC2)cc1C (configuration not stated),"inconclusive: 31.6 µM [activator, single point]",–
O=C(CSc1nnc2c(n1)[nH]c1ccc(F)cc12)NCc1ccc(F)cc1,"inconclusive: 5.01 µM [inhibitor, single point]",–
Cc1ccc2nc(-c3ccc(NC(=S)NC4CC(C)(C)NC(C)(C)C4)cc3)sc2c1,"inconclusive: 17.8 µM [inhibitor, single point]",–
CCc1cc(/C(Cc2ccccn2)=N\O)c(O)cc1O,"inconclusive: 5.01 µM [activator, partial curve, poor fit]",–
CCCN(CC(=O)Nc1ccc(Cl)cc1Cl)C(=O)/C=C/c1ccco1,"inconclusive: 11.2 µM [activator, partial curve]",–
CCOc1ccc(CCNC(=O)c2cc(C)nc3ccccc23)cc1OCC,–,inactive: 28.2%
Cc1cccnc1NC(=S)Nc1ccc(Br)cc1Cl,active: 2.51 µM,–
Cc1n[nH]c(=S)c2nn(-c3ccccc3F)c(C)c12,"inconclusive: 35.5 µM [inhibitor, single point]",–
Cc1ccc(C(=O)NCCSCc2ccc(Cl)cc2Cl)cc1[N+](=O)[O-],"inconclusive: 25.1 µM [activator, single point]",–
CCc1cc(-c2[nH]ncc2-c2ccc3c(c2)OCO3)c(O)cc1O,–,inactive: -28.1%
CCOC(=O)c1ccc(N2CC(O)=C(c3nc4ccccc4c(=O)[nH]3)C2=N)cc1,–,inactive: 9.37%
CCN(Cc1ccccc1)c1ccc(/C=C(\C#N)c2ccccn2)cc1,"inconclusive: 35.5 µM [activator, single point]",–
CCOC(=O)C1=C(CSc2nc3ccccc3s2)NC(=O)NC1c1cc(C)ccc1C (configuration not stated),"inconclusive: 14.1 µM [activator, single point]",–
COc1ccccc1N(Cc1ccccc1)S(=O)(=O)c1cccc(C(=O)Nc2cc(C)ccn2)c1,active: 6.31 µM,–
Cc1oc(-c2ccccc2)cc1C(=O)Nc1cccc2ccccc12,–,inactive: -31.2%
CC1CCN(S(=O)(=O)c2ccc(C(=O)Nc3ccccc3-c3nc4ccccc4[nH]3)cc2)CC1,–,inactive: -0.183%
COc1cc(C(CCN2CCOCC2)c2c(OC)cc(OC)c3c(-c4ccccc4)cc(=O)oc23)cc(OC)c1OC (configuration not stated),"inconclusive: 3.16 µM [inhibitor, single point]",–
CCCCNC(=O)c1sc(=S)n2c1[nH]c(=O)c1ccccc12,–,inactive: 15.9%
CCOC(=O)/C(=C\Nc1ccc(OC(F)(F)F)cc1)Sc1ncc(C(F)(F)F)cc1Cl,–,inactive: 0.002%
O=C(NNC(=S)Nc1ccccc1Cl)c1ccccc1,active: 12.6 µM,–

# 13 entries from above, arranged by SMILES length, low to high.
SMILES,Potency,"activity change, negative = inhibition"
Cc1cccnc1NC(=S)Nc1ccc(Br)cc1Cl,active: 2.51 µM,–
O=C(NNC(=S)Nc1ccccc1Cl)c1ccccc1,active: 12.6 µM,–
CCc1cc(/C(Cc2ccccn2)=N\O)c(O)cc1O,"inconclusive: 5.01 µM [activator, partial curve, poor fit]",–
Cc1n[nH]c(=S)c2nn(-c3ccccc3F)c(C)c12,"inconclusive: 35.5 µM [inhibitor, single point]",–
CCCCNC(=O)c1sc(=S)n2c1[nH]c(=O)c1ccccc12,–,inactive: 15.9%
CCN(Cc1ccccc1)c1ccc(/C=C(\C#N)c2ccccn2)cc1,"inconclusive: 35.5 µM [activator, single point]",–
Cc1ccc(S(=O)(=O)N2CCN(CC(O)c3ccccc3)CC2)cc1C (configuration not stated),"inconclusive: 31.6 µM [activator, single point]",–
O=C(CSc1nnc2c(n1)[nH]c1ccc(F)cc12)NCc1ccc(F)cc1,"inconclusive: 5.01 µM [inhibitor, single point]",–
Cc1ccc2nc(-c3ccc(NC(=S)NC4CC(C)(C)NC(C)(C)C4)cc3)sc2c1,"inconclusive: 17.8 µM [inhibitor, single point]",–
CCOC(=O)/C(=C\Nc1ccc(OC(F)(F)F)cc1)Sc1ncc(C(F)(F)F)cc1Cl,–,inactive: 0.002%
COc1ccccc1N(Cc1ccccc1)S(=O)(=O)c1cccc(C(=O)Nc2cc(C)ccn2)c1,active: 6.31 µM,–
CC1CCN(S(=O)(=O)c2ccc(C(=O)Nc3ccccc3-c3nc4ccccc4[nH]3)cc2)CC1,–,inactive: -0.183%
COc1cc(C(CCN2CCOCC2)c2c(OC)cc(OC)c3c(-c4ccccc4)cc(=O)oc23)cc(OC)c1OC (configuration not stated),"inconclusive: 3.16 µM [inhibitor, single point]",–
